Source: ChEMBL document CHEMBL4513149, “CO-ADD screening of MMV (CH) - MMV compounds” (2021)
The list shows a part of the results. Potency and affinity values are given separately.

System: Acinetobacter baumannii
Conditions: Concentration 20 uM; ASSAY_TEST Inhibition of Bacterial Growth; detection method Absorption (OD600); MEDIA CAMHB; plate type 384well; NBS; CORNING #3640; time 18 hr

Row | Structure (SMILES) | Inhibition [%]
1 | Cc1nnc(NC(=O)c2cn(-c3ccccc3)nc2-c2ccccc2C)o1 | 10.29
2 | Cc1ccccc1C(=O)N1N=C(Nc2ccccc2)SC1(C)C | -6.25
3 | CC[C@H](CO)NCCN[C@H](CC)CO.Cl.Cl | 10.29
4 | CC1CCCCN1C(=O)NCCc1coc(-c2ccc(F)cc2)n1 (configuration not stated) | 12.51
5 | CCC(=O)Nc1ccccc1C(=O)Nc1ccccn1 | 10.62
6 | COc1cc(C2=NCCN2)ccc1-c1cn(-c2cccc(C3=NCCN3)c2)nn1 | 13.79
7 | COc1cccc(NC(=O)c2c(NC(=O)c3cccnc3)sc3c2CCC3)c1 | 11.92
8 | O=C(C1CCN(c2nnnn2-c2ccccc2)CC1)N1CCc2ccccc2C1 | 7.15
9 | CNc1snc(C)c1C(=O)NCCOc1ccc(OC)cc1 | 13.43
10 | CC(C)NCC(=O)Nc1cccc(C(=O)Nc2cccc(C(F)(F)F)c2)c1 | 12.44
11 | Cc1ccc(S(=O)(=O)Nc2ccc(CN3CCN(C(=O)c4cccc(C#N)c4)CC3)cc2)cc1 | 7.03
12 | Cc1noc(C)c1C(=O)N1CCCC(c2[nH]c3c(C)cccc3c2-c2ccncc2)C1 (configuration not stated) | 0.36
13 | O=[N+]([O-])c1cn2c(n1)OC[C@@H](OCc1ccc(OC(F)(F)F)cc1)C2 [PRETOMANID] | 6.12
14 | Brc1c(-c2ccc3c(c2)OCO3)nc2ncccn12 | 9.07
15 | Cc1cnc(N2CCN[C@@H](Cc3ccccc3)C2)nc1Oc1ccc(-n2ccnc2)cc1.Cl | 12.05
16 | CCCCN(CCCC)c1c(C#N)cc(S(=O)(=O)Nc2ccccc2)cc1C#N | 4.78
17 | CCCNC(=O)N1CCC2(CC1)CC(=O)c1cc(C)ccc1O2 | 10.32
18 | CCC(C)NC(=O)c1ccc(NC(=O)C2(c3ccccc3)CCCC2)cc1 (configuration not stated) | 7.16
19 | Cc1cc(Cl)c(S(=O)(=O)N2CCCC2)cc1OCC(=O)NC1CCCCC1 | 4.57
20 | O=C(NC1CC1)c1ccc(CSCc2ccccc2Cl)o1 | 3.54
21 | COc1ccc(-c2cnc3ccc(N4CCCC4)nn23)cc1OC | 10.59
22 | CNc1nnc(Sc2cnn(-c3ccccc3)c(=O)c2Cl)s1 | 2.31
23 | COC(=O)c1ccc(F)cc1NS(=O)(=O)c1cccc(-c2cnn(Cc3ccccc3)c2)c1 | -6.13
24 | COc1cc(C(F)(F)F)nc2ccc(C)c(N)c12 | 9.33

Reprinted, entries 15 to 16
Row | Structure (SMILES) | Inhibition [%]
15 | Cc1cnc(N2CCN[C@@H](Cc3ccccc3)C2)nc1Oc1ccc(-n2ccnc2)cc1.Cl | 12.05
16 | CCCCN(CCCC)c1c(C#N)cc(S(=O)(=O)Nc2ccccc2)cc1C#N | 4.78

Continued.

Row | Structure (SMILES) | Inhibition [%]
25 | O=C(c1[nH]nc2c1CCCC2)N1CCN(Cc2ccc3c(c2)OCO3)CC1 | 5.53
26 | CC(Oc1ccccc1)C(=O)Nc1nc(-c2ccccn2)cs1 (configuration not stated) | 9.37
27 | Nc1ncc(-c2ccc(C(F)(F)F)nc2)cc1-c1ccc(C(F)(F)F)nc1 | -2.69
28 | Cc1cc(C)c2cc(C(=O)NC3CCCCCCC3)[nH]c2c1 | 6.38
29 | Cc1ccc2[nH]c(C3CCCNC3)c(-c3ccncc3)c2c1.Cl.Cl (configuration not stated) | -1.93
30 | CCCCc1ccc(C(=O)Nc2nccc3ccccc23)nc1 | 12.68
31 | CC(=O)Nc1ccc(-c2noc(CC3CCCN(Cc4cccc(F)c4C)C3)n2)cc1 (configuration not stated) | 6.04
32 | Cc1ccc(NC(=O)CC2COc3ccccc3O2)cc1Cl (configuration not stated) | 3.82
33 | CCc1cc(=O)n(C)c(SC(C)C(=O)Nc2ccc(F)cc2)n1 (configuration not stated) | 0.57
34 | FC(F)(F)c1cccc(-c2nc3c(NCc4ccncc4)nccc3[nH]2)c1 | -4.54
35 | CNC(=O)c1cc(S(=O)(=O)N2CCN(c3ccccn3)CC2)cs1 | 8.13
36 | O=C1Nc2ccc(Br)cc2C12NCCc1c2[nH]c2ccccc12 (configuration not stated) | 7.8
37 | CN1CCN(S(=O)(=O)c2ccc(-c3ccc4c(Nc5ccc6nn[nH]c6c5)ccnc4c3)cc2)CC1 | 4.74
38 | COc1ccccc1OCCCCn1c(C2CC2)nc2ccccc21 | 10.96
39 | CC(C(=O)N1CCCC1)N1CCN(S(=O)(=O)c2ccc(C(C)(C)C)cc2)CC1 (configuration not stated) | 4.82
40 | COc1ccc(S(=O)(=O)Nc2ccc(CN3CCN(C(=O)c4cccc(C#N)c4)CC3)cc2)cc1 | 7.55
41 | CS(=O)(=O)c1ccc(C(=O)N(CC2CCCO2)c2nc3ccccc3s2)cc1[N+](=O)[O-] (configuration not stated) | -2.48
42 | O=C(c1cc2ccccc2o1)N1CCN(Cc2ccc3c(c2)OCO3)CC1 | 8.3
43 | CC(=O)N1CCc2cc3nc(C)cc(C)c3cc21 | 10.62
44 | CN1CCN(S(=O)(=O)c2ccc(-c3ccc4c(Nc5ncc(Cl)cn5)ccnc4c3)cc2)CC1 | 11.8
45 | COc1ccc(-c2cnc3ccc(NCc4ccc(S(N)(=O)=O)cc4)nn23)cn1 | 11.24
46 | FC(F)(F)c1nnc2ccc(Cl)nn12 | 8.19
47 | COc1ccc(Cl)cc1NC(=O)CN(C)C(=O)c1cnn(-c2ccccc2)n1 | 14.66
